# From PubChem BioAssay AID200 (DTP/NCI, 2004)
# The list does not hold the whole screen: it is rich in T/C values a quarter to a half above the control, in often repeated tests (any T/C) and in doses without a T/C. Further doses and runs are listed elsewhere. T/C gives the treated animals as a percentage of the vehicle group. Some entries give survivors of the animals treated and no T/C: the source holds a T/C of zero for them, seemingly a mark for toxic or unscored doses. Some doses without a T/C left all or most animals alive at the check, yet need not have been tolerated: the source hardly ever lists a survival T/C far under the control, and the zero likely stands for such cases as well. Counts of survivors are from the toxicity check (mostly the fifth day) where no day follows; animals may have died later. Schedule codes are those of the source, taken here to give the interval after Q, in days (D) or hours (H), and the number of doses after X. Brackets with × give the number of equal values in this list. Some entries hold several experiments; the results are listed from low to high. Where survival is the endpoint, this PubChem deposit counts one and a half times the control or more as active, and values a quarter to a half above the control carry no call in these data; other NCI protocols may use other cut-offs. Some T/C values carry the count of animals alive at the toxicity check (mostly the fifth day); without a count, all were alive then.
# System: B6C3F1 mice, B16 melanoma ip, median survival T/C
# Experiment: NCI In Vivo Anticancer Drug Screen. Data for tumor model B16 Melanoma (intraperitoneal) in B6C3F1 mice
# Details: T/C endpoint: median survival time, higher T/C = longer survival
# How it was run: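 Mice bearing transplanted tumor were dosed with compound or vehicle, and survival was recorded. Activity is expressed as the treated-group measurement (T) divided by the vehicle control measurement (C).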
# [1] = dose: 100.0 mg/kg/injection, schedule: Q01DX009 (ip), vehicle: saline
# [2] = dose: 100.0 mg/kg/injection, schedule: Q01DX009 (ip), vehicle: saline with Tween-80
# [3] = dose: 400.0 mg/kg/injection, schedule: Q01DX009 (ip), vehicle: saline with Tween-80
# [4] = dose: 25.0 mg/kg/injection, schedule: Q01DX009 (ip), vehicle: saline with Tween-80
# [5] = dose: 12.5 mg/kg/injection, schedule: Q01DX009 (ip), vehicle: saline with Tween-80
# [6] = dose: 50.0 mg/kg/injection, schedule: Q01DX009 (ip), vehicle: saline with Tween-80
# [7] = dose: 200.0 mg/kg/injection, schedule: Q01DX009 (ip), vehicle: saline with Tween-80
# [8] = dose: 50.0 mg/kg/injection, schedule: Q01DX009 (ip), vehicle: acid diluted with saline
# [9] = dose: 200.0 mg/kg/injection, schedule: Q01DX009 (ip), vehicle: saline
# [10] = dose: 400.0 mg/kg/injection, schedule: Q01DX009 (ip), vehicle: Klucel (hydroxypropylcellulose) (HPC)
# [11] = dose: 100.0 mg/kg/injection, schedule: Q01DX009 (ip), vehicle: Klucel (hydroxypropylcellulose) (HPC)
# [12] = dose: 200.0 mg/kg/injection, schedule: Q01DX009 (ip), vehicle: Klucel (hydroxypropylcellulose) (HPC)
# [13] = dose: 50.0 mg/kg/injection, schedule: Q01DX009 (ip), vehicle: Klucel (hydroxypropylcellulose) (HPC)
structure (smiles),measurement,setting,value
CCCCCCCCCCCCCCCC(=O)Nc1ccn(C2OC(CO)C(O)C2O)c(=O)n1 (stereo not drawn),T/C,"dose: 12.5 mg/kg/injection, schedule: Q01DX009 (ip), vehicle: saline",131 % of control
same,survivor count,[1],10 of 10
CCOC(OCC)C(=O)OCC(=O)[C@]1(O)Cc2c(O)c3c(c(O)c2[C@@H](OC2CC(N)C(O)C(C)O2)C1)C(=O)c1c(OC)cccc1C3=O (stereo partly drawn),survivor count,"dose: 4.0 mg/kg/injection, schedule: Q01DX009 (ip), vehicle: water",9 of 10
same,survivor count,"dose: 8.0 mg/kg/injection, schedule: Q01DX009 (ip), vehicle: water",9 of 10 and 10 of 10
Oc1ccc2ccccc2c1N=Nc1ccc(F)cc1,T/C,[2],129 % of control
COC(C(=O)C(O)C(C)O)C1Cc2cc3cc(OC4CC(OC(C)=O)C(OC5CC(O)C(OC)C(C)O5)C(C)O4)cc(O)c3c(O)c2C(=O)C1OC1CC(OC2CC(OC3CC(C)(O)C(OC(=O)C(C)C)C(C)O3)C(O)C(C)O2)C(O)C(C)O1 (stereo not drawn),T/C,"dose: 0.12 mg/kg/injection, schedule: Q01DX009 (ip), vehicle: saline with Tween-80",125 % of control
same,T/C,"dose: 0.25 mg/kg/injection, schedule: Q01DX009 (ip), vehicle: saline with Tween-80",131 % of control
[Cl][Pt+2][Cl].[NH-]c1cc(Cl)c(Cl)c(Cl)c1[NH-],survivor count,"dose: 160.0 mg/kg/injection, schedule: Q01DX009 (ip), vehicle: distilled water + Tween-80",6 of 10
CCOC(=O)C1(c2ccccc2)C(=O)Oc2ccccc21 (stereo not drawn),survivor count,[3],10 of 10
Cn1c(N)c(N=Nc2ccccc2Cl)c(=O)n(C)c1=O,T/C,[4],125 % of control
O=c1c(O)c(-c2ccc(O)c(O)c2)oc2cc(O)cc(O)c12,survivor count,"dose: 200.0 mg/kg/injection, schedule: Q01DX009 (ip), vehicle: suspension in saline",9 of 10
CCCCCCCCSC1=C(Cl)C(=O)C(OC)=C(OC)C1=O,survivor count,[5],10 of 10
same,survivor count,[4],9 of 10
same,survivor count,[6],5 of 10
NC(=O)c1ncn2c(=O)n(CCCl)nnc12,T/C,"dose: 6.25 mg/kg/injection, schedule: Q01DX009 (ip), vehicle: suspension in saline",148 % of control
same,survivor count,"dose: 50.0 mg/kg/injection, schedule: Q01DX009 (ip), vehicle: suspension in saline",10 of 10
Cc1cccc2c1CC(C(C)C)C2 (stereo not drawn),survivor count,[7],9 of 10
O=C1c2cccc(NCCCNCCO)c2C(=O)c2cccc(NCCCNCCO)c21,survivor count,"dose: 6.25 mg/kg/injection, schedule: Q01DX009 (ip), vehicle: acid diluted with saline",10 of 10
same,T/C,"dose: 12.5 mg/kg/injection, schedule: Q01DX009 (ip), vehicle: acid diluted with saline",127 % of control [9 of 10 alive]
same,T/C,"dose: 25.0 mg/kg/injection, schedule: Q01DX009 (ip), vehicle: acid diluted with saline",135 % of control
same,T/C,[8],138 % of control [9 of 10 alive]
same,survivor count,[8],10 of 10
same,survivor count,"dose: 100.0 mg/kg/injection, schedule: Q01DX009 (ip), vehicle: acid diluted with saline",3 of 10
O=C(O)C(O)C(O)C1[O][Sb][O]C1C(=O)O (stereo not drawn),survivor count,[1],2 of 10
O=S(=O)(O)c1cc(N=C=S)ccc1/C=C/c1ccc(N=C=S)cc1S(=O)(=O)O,survivor count,[9],4 of 10
CC1=CC(=O)C(O)C2(C)C1CC1OC(=O)C(OC(=O)CC(C)(C)O)C3C(C)C(O)C4(O)OCC13C42 (stereo not drawn),survivor count,"dose: 8.0 mg/kg/injection, schedule: Q01DX009 (ip), vehicle: saline + alcohol",6 of 10
CC(C)CCCCCCCCCCCCC(=O)NCC(=O)NC1C(C)OC(Nc2ncnc3nc[nH]c23)C(O)C1O (stereo not drawn),T/C,"dose: 1.0 mg/kg/injection, schedule: Q01DX009 (ip), vehicle: distilled water + Tween-80",126 % of control
same,T/C,"dose: 2.0 mg/kg/injection, schedule: Q01DX009 (ip), vehicle: distilled water + Tween-80",141 % of control
same,T/C,"dose: 4.0 mg/kg/injection, schedule: Q01DX008 (ip), vehicle: distilled water + Tween-80",130 % of control
same,T/C,"dose: 4.0 mg/kg/injection, schedule: Q01DX009 (ip), vehicle: distilled water + Tween-80",126 % of control
same,survivor count,"dose: 8.0 mg/kg/injection, schedule: Q01DX008 (ip), vehicle: distilled water + Tween-80",9 of 10
same,survivor count,"dose: 8.0 mg/kg/injection, schedule: Q01DX009 (ip), vehicle: distilled water + Tween-80",10 of 10
NC(=O)c1ncn(C2OC(CO)C(O)C2O)c1O (stereo not drawn),survivor count,[10],10 of 10
CN=C(N)N/N=C(\C)c1ccc2c(c1)Cc1ccccc1-2,survivor count,[7],9 of 10
same,survivor count,[3],8 of 10
Nc1ncnc2c1cnn2Cc1ccc(Cl)cc1,survivor count,[7],9 of 10
CC(=O)O[C@H]1C(=O)[C@@]2(C)C(C(OC(=O)c3ccccc3)[C@]3(O)CC(OC(=O)[C@H](OC(=O)CCC(=O)O)C(NC(=O)c4ccccc4)c4ccccc4)C(C)=C1C3(C)C)C1(OC(C)=O)COC1C[C@@H]2O (stereo partly drawn),T/C,"dose: 2.5 mg/kg/injection, schedule: Q01DX009 (ip), vehicle: water",125 % of control
same,T/C,"dose: 5.0 mg/kg/injection, schedule: Q01DX009 (ip), vehicle: water",131 % of control
CC(C)(C)C1CCCCC1,survivor count,[11],10 of 10
same,survivor count,[12],10 of 10
same,survivor count,[10],10 of 10
Nc1ccc(Cn2ccc3c4c(N)nc(N)nc4ccc32)cc1,survivor count,"dose: 20.0 mg/kg/injection, schedule: Q01DX009 (ip), vehicle: saline with Tween-80",10 of 10 (2×)
same,survivor count,"dose: 40.0 mg/kg/injection, schedule: Q01DX009 (ip), vehicle: saline with Tween-80",0 of 10 (2×)
CN(CN1C(=O)CCC1=O)CN1C(=O)CCC1=O,survivor count,"dose: 400.0 mg/kg/injection, schedule: Q01DX009 (ip), vehicle: saline",0 of 10
CCCCCC[Se][Se]CCCCCC,survivor count,"dose: 12.5 mg/kg/injection, schedule: Q01DX009 (ip), vehicle: Klucel (hydroxypropylcellulose) (HPC)",10 of 10
same,survivor count,"dose: 25.0 mg/kg/injection, schedule: Q01DX009 (ip), vehicle: Klucel (hydroxypropylcellulose) (HPC)",3 of 10
same,survivor count,[13],2 of 10
CCNC(=O)OCc1c(COC(=O)NCC)c(-c2ccc(Cl)c(Cl)c2)n2c1CCC2,T/C,"dose: 1.56 mg/kg/injection, schedule: Q01DX009 (ip), vehicle: saline with Tween-80",126 % of control
same,T/C,"dose: 3.12 mg/kg/injection, schedule: Q01DX009 (ip), vehicle: saline with Tween-80",126 % of control
same,T/C,[5],139 % of control
same,survivor count,[4],10 of 10
same,survivor count,[6],9 of 10
same,survivor count,[2],1 of 10
CC[C@](O)(C(=O)O)c1cc2n(c(=O)c1CO)Cc1cc3ccccc3nc1-2,survivor count,"dose: 6.0 mg/kg/injection, schedule: Q01DX009 (ip), vehicle: water",10 of 10
same,survivor count,"dose: 12.0 mg/kg/injection, schedule: Q01DX009 (ip), vehicle: water",10 of 10
same,survivor count,"dose: 24.0 mg/kg/injection, schedule: Q01DX009 (ip), vehicle: water",10 of 10
CC(C)(C)OC(=O)NC(CC(=O)OCc1ccccc1)C(=O)ON1C(=O)CCC1=O (stereo not drawn),survivor count,[11],10 of 10
same,survivor count,[12],10 of 10
same,survivor count,[10],8 of 10
CCNC(=O)[B-][N+](C)(C)C,survivor count,[13],10 of 10
same,survivor count,[11],10 of 10
same,survivor count,[12],9 of 10
CN(C)CCNc1ccc(CO)c2sc3ccc(O)cc3c(=O)c12,survivor count,"dose: 138.88 mg/kg/injection, schedule: Q01DX009 (ip), vehicle: saline with Tween-80",10 of 10
CC(=O)OCC1OC(n2cc(CBr)nn2)C(OC(C)=O)C(OC(C)=O)C1OC(C)=O (stereo not drawn),T/C,[1],134 % of control
same,survivor count,[9],7 of 10
CN1c2c(nc(N)[nH]c2=O)NCC1CCNc1ccc(C(=O)NC(CCC(=O)O)C(=O)O)cc1 (stereo not drawn),T/C,"dose: 200.0 mg/kg/injection, schedule: Q01DX009 (ip), vehicle: sodium bicarbonate",125 % of control
same,T/C,"dose: 400.0 mg/kg/injection, schedule: Q01DX009 (ip), vehicle: sodium bicarbonate",128 % of control [9 of 10 alive]
same,T/C,"dose: 800.0 mg/kg/injection, schedule: Q01DX009 (ip), vehicle: sodium bicarbonate",131 % of control
